A short description of data set [1]: general procedure: Fmoc solid-phase peptide synthesis; Rink amide resin; PyBOP. Conditions: whole synthesis.
Data set [2] in a line: peptide synthesis. The settings on record: conjugation step.

The values below come from US20060100154A1 (YEDA RESEARCH AND DEVELOPMENT CO, priority 2005, published 2006).

Bounds are passed on as bounds.

For “[D-Lys^6(N-(2-chloro-1,4-naphthoquinonyl)-β-alanyl)]GnRH”, the isolated yield in data set [1] (scale of the general procedure 25 μmol) came out at 83%. The conjugation yield in data set [2] turned out to be 60%. For the substance [D-Lys^6]GnRH, the “crude HPLC purity” value in data set [1] (analytical HPLC (RP-18 and C4), scale 25 μmol) is more than 90%.
